Reference: US20130253058A1, “SATIETY-INDUCING COMPOSITION” (DSM IP ASSETS B.V., priority 2009, published 2013)

Test: TNO Intestinal Model (TIM), Example 3: light microscopy of crystals in jejunum and ileum lumen
Type: in vitro ADME
Conditions: yoghurt with 3.5% lipids

CCCCCCCCCCCCCCCC(=O)O [Palmitic acid]
amount of crystals by light microscopy, Jejunum lumen (60 min after insertion of yoghurt in the stomach compartment): ++ (++: many (>10) crystals in most or all of the images) | amount of crystals by light microscopy, Ileum lumen (120 min after insertion of yoghurt in the stomach compartment): + (+: few crystals (max 10), in some or most of the images) | amount of crystals by light microscopy, Jejunum lumen (180 min after insertion of yoghurt in the stomach compartment): ++ (++: many (>10) crystals in most or all of the images) | amount of crystals by light microscopy, Ileum lumen (240 min after insertion of yoghurt in the stomach compartment): + (+: few crystals (max 10), in some or most of the images)
